Assay [1] concerns the target T1, human CD39 protein (recombinant) (human, UniProt P49961 38-478, limits assumed).
T1 sequence: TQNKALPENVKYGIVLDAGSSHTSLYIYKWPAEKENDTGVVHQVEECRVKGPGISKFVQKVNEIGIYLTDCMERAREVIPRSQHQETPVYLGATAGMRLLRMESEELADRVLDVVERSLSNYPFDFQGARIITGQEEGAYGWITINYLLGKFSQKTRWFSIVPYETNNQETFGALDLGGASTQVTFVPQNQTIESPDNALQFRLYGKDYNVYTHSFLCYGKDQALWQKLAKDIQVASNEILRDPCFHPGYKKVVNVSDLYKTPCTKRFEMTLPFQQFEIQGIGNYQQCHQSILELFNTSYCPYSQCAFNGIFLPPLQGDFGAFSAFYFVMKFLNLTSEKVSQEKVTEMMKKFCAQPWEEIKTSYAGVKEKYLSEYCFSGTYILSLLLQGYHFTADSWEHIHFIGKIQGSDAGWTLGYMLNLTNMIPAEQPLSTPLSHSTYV
Kind of assay: ELISA on coated human CD39 protein. As to the method:
To determine if anti-CD39 mAbs bind to human CD39, ELISA plates were incubated overnight at 4° C. with human CD39 protein or mouse CD39 protein diluted in PBS, pH7.4 buffer at 1 μg/ml. Plates were washed four times in washing buffer (PBS containing 0.05% Tween 20), and blocked for 1 hour at 37° C. with 200 μl per well blocking buffer (1% BSA in PBS containing 0.05% Tween 20). After blocking buffer was removed, hybridoma supernatant or diluted purified Abs were added to the wells at 100 μl per well and incubated at 37° C. for 1 hour. The wells were washed four times with washing buffer, and anti-mouse HRP (for mouse anti-human CD39 Ab characterization) or anti-rat HRP (for rat anti-mouse CD39 Ab characterization) (Sigma) were 1:5000 diluted and added to the wells at 100 μl per well. The plates were incubated for 1 hour at 37° C. and washed four times in washing buffer. 100 μl of tetramethylbenzidine (TMB) chromogenic solution were added per well. Following color development, the reaction was stopped with 1N HCl, and absorbance at 450 nm was measured. The data were proceeded by GraphPad software.
Humanized antibodies HuEM04-38-6 to HuEM0004-38-20 and chimeric antibodies EM04-38c, EM004-38c1, and EM0004-38c2 were tested for CD39 specific binding by ELISA as described in Example 1.2 and for inhibition of protein-based ATPase activity as described in Example 1.3.

For assay [2], the target named is cynomolgus monkey CD39 on CHO-K1 cells (cynomolgus monkey). Kind of assay: FACS on CHO-K1-cyno CD39 cells.

These are yes or no findings as the source states them, for the method shown. Some entries that bind do so weakly or less than the wild type.

B1: HuEM0004-38-17 (antibody, human IgG1, kappa, L234A L235A, V domains shown)
VH: EVQLVQSGAEVKKPGASVKVSCKASGYTFTSFWMHWVRQAPGQGLEWMGNINPRNGATKYNEKFRSRVTMTADKSISTAYMELSRLRSDDTAVYYCAREDYDEIYYAMDSWGQGTTVTVSS
VL: ENVLTQSPATLSLSPGERATLSCSASSSVIYMYWFQQKPGQSPRVLIYDTSNLASGVPARFSGSGSGTDYTLTISSLEPEDFAVYYCQQWSTYPLTFGQGTKLEIKR
notes: humanized mAb638, human IgG1/kappa
For the molecule B1, the binding entry in assay [1] was “binds”.

B2: HuEM0004-38-19 (antibody, human IgG1, kappa, L234A L235A, V domains shown)
VH: EVQLVQSGAEVKKPGASVKVSCKASGYTFTSFWMHWVRQAPGQGLEWIGNINPRNGATKYNEKFRSRVTLTADKSISTAYMELSRLRSDDTAVYYCAREDYDEIYYAMDSWGQGTTVTVSS
VL: ENVLTQSPATLSLSPGERATLSCSASSSVIYMYWFQQKPGQSPRVLIYDTSNLASGVPARFSGSGSGTDYTLTISSLEPEDFAVYYCQQWSTYPLTFGQGTKLEIKR
notes: as for B1
As to B2, the binding entry in assay [1] was “binds”.

B3: HuEM0004-38-18 (antibody, human IgG1, kappa, L234A L235A, V domains shown)
VH: EVQLVQSGAEVKKPGASVKVSCKASGYTFTSFWMHWVRQAPGQGLEWMGNINPRNGATKYNEKFRSRVTLTADKSISTAYMELSRLRSDDTAVYYCAREDYDEIYYAMDSWGQGTTVTVSS
VL: ENVLTQSPATLSLSPGERATLSCSASSSVIYMYWFQQKPGQSPRVLIYDTSNLASGVPARFSGSGSGTDYTLTISSLEPEDFAVYYCQQWSTYPLTFGQGTKLEIKR
notes: as for B1
Regarding B3, the binding entry in assay [1] is on record as “binds”.

B4: EM0004-38c1 (antibody, human IgG1, kappa, L234A L235A, name in Kabat numbering, V domains shown)
VH: QVQLQQPGTELVKPGASVKLSCKASGYTFTSFWMHWVKQRPGQGLEWIGNINPRQGATKYNEKFRSKVTLTADKTSSTAYMHLSSLTSEDSAVYYCAREDYDEIYYAMDSWGQGTSVTVSS
VL: QNVLTQSPAIMSASPGEKVTMTCSASSSVIYMYWFQQKPGSSPRVLIYDTSNLASGVPARFSGSGSGTSYSLTISRMEAEDAATYYCQQWSTYPLTFGAGTKLELKR
notes: chimeric mAb638 variant; also called EM004-38c1
As for B4, the binding entry in assay [1] is “binds”.

B5: mAb638 (antibody, V domains shown)
VH: QVQLQQPGTELVKPGASVKLSCKASGYTFTSFWMHWVKQRPGQGLEWIGNINPRNGATKYNEKFRSKVTLTADKTSSTAYMHLSSLTSEDSAVYYCAREDYDEIYYAMDSWGQGTSVTVSS
VL: QNVLTQSPAIMSASPGEKVTMTCSASSSVIYMYWFQQKPGSSPRVLIYDTSNLASGVPARFSGSGSGTSYSLTISRMEAEDAATYYCQQWSTYPLTFGAGTKLELK
notes: mouse anti-human CD39 hybridoma mAb, IgG1, κ
For B5, the binding result in assay [2] is on record as “binds”.

B6: EM0004-38c2 (antibody, human IgG1, kappa, L234A L235A, name in Kabat numbering, V domains shown)
VH: QVQLQQPGTELVKPGASVKLSCKASGYTFTSFWMHWVKQRPGQGLEWIGNINPRNAATKYNEKFRSKVTLTADKTSSTAYMHLSSLTSEDSAVYYCAREDYDEIYYAMDSWGQGTSVTVSS
VL: QNVLTQSPAIMSASPGEKVTMTCSASSSVIYMYWFQQKPGSSPRVLIYDTSNLASGVPARFSGSGSGTSYSLTISRMEAEDAATYYCQQWSTYPLTFGAGTKLELKR
notes: chimeric mAb638 variant
Take B6: the binding result in assay [1] is recorded as “binds”.

Values taken from patent US20220389111A1 (SHANGHAI EPIMAB BIOTHERAPEUTICS, published 2022).
